Results: PubChem BioAssay AID2417 (National Center for Advancing Translational Sciences (NCATS), 2010)
The campaign covered roughly 140,000 compounds. About 4,300 (3.1%) were called active. The shares of active, inactive and inconclusive entries below differ from those in the screen.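 The calls were made as follows: active = readout at or below -70, meaning at least 70% loss of cells showing the perinucleolar compartment, a nuclear body marking cancer cells; inconclusive = readout between -30 and a set limit; inactive = the rest.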

Assay: High Content Assay for Compounds that inhibit the Assembly of the Perinucleolar Compartment;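 also: plate controls were DMSO wells for no effect and camptothecin positive control wells for full effect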
Conditions: PC3M PTB-GFP, PNC prevalence imaging, 16 h; at 10 µM; stronger effect = lower value
How it was run: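 Compounds are pinned in duplicate onto adhered PC3M cells stably expressing GFP-tagged PTB and incubated 16 h at 37 C. Cells are then fixed, nuclei stained with Hoechst, and PNC-positive cells counted.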
With Cc1ccc(C(C(=O)NC2CCCCC2)N(C(=O)Cc2c[nH]c3ccccc23)c2ccccc2C)o1 (stereo not drawn) the activity change (PNC), negative = inhibition was inconclusive: -52.8%.
With CCSc1nnc(NC(=O)C2CC2c2ccccc2)s1 (stereo not drawn) the activity change (PNC), negative = inhibition was inconclusive: -36.6%.
With Cc1c(Cl)cccc1NC(=O)c1ccc(-n2ccnc2)nc1 the activity change (PNC), negative = inhibition was inconclusive: -46.1%.
For O=[N+]([O-])c1ccc(Oc2cccc3cccnc23)c([N+](=O)[O-])c1, the activity change (PNC), negative = inhibition was inconclusive: -47%.
For COC(=O)c1cc(-c2c(C)oc3cc(OC(C)C)ccc3c2=O)c(C)o1, the activity change (PNC), negative = inhibition was inconclusive: -42.7%.
In the case of O=C(CSc1nnc(Cc2ccccc2)n1-c1cccc(Cl)c1)N1CCOCC1, the activity change (PNC), negative = inhibition is reported as inconclusive: -39.3%.
With CSc1cccc(NC(=O)CSc2nc3ccccc3o2)c1 the activity change (PNC), negative = inhibition was active: -98.2%.
With COc1ccc(C2Nc3ccccc3C(=O)N2c2ccc(C)cc2)cc1Cn1nnc2ccccc21 (stereo not drawn) the activity change (PNC), negative = inhibition was inconclusive: -69%.
For COc1cc(-c2nc3ccccc3c(=O)n2N)cc(OC)c1OC, the activity change (PNC), negative = inhibition was inconclusive: -36.6%.
With CN(CCc1ccccn1)S(=O)(=O)c1ccc(F)cc1 the activity change (PNC), negative = inhibition was inconclusive: -54.9%.
For COc1cc(NC(=S)NC(=O)c2ccc(C(C)(C)C)cc2)ccc1NC(=O)c1cccs1, the activity change (PNC), negative = inhibition was active: -115%.
For Cc1ccc(S(=O)(=O)N2CCOCC2)cc1NC(=O)CSc1nc2ccccc2c(=O)n1Cc1ccccc1, the activity change (PNC), negative = inhibition was inconclusive: -44.7%.
With Cc1ccccc1NC(=S)NCc1ccc2[nH]c3c(c2c1)CCCC3 the activity change (PNC), negative = inhibition was inactive: 25.4%.
With O=S(=O)(c1ccc(F)cc1)N1CCN(c2ncnc3c2cnn3-c2ccccc2)CC1 the activity change (PNC), negative = inhibition was inconclusive: -50%.
For COc1cc(-c2nc(-c3cccnc3)no2)cc(OC)c1OC, the activity change (PNC), negative = inhibition was inconclusive: -40.3%.
In the case of Cc1ccccc1OCCCC(=O)Nc1ccc2c(c1)OCO2, the activity change (PNC), negative = inhibition is reported as inconclusive: -50.9%.
In the case of CC1=C(C(=O)N(C)C)C(c2ccc(Cl)c(Cl)c2)NC(=O)N1 (stereo not drawn), the activity change (PNC), negative = inhibition is reported as inconclusive: -66.3%.
In the case of Cc1ccc(-c2c3c([nH]c(=S)c2C#N)CCCC3)o1, the activity change (PNC), negative = inhibition is reported as inactive: -4.75%.
With O=C(COc1ccc(Br)cc1)OCc1nnc(-c2ccccc2)o1 the activity change (PNC), negative = inhibition was inactive: 17.8%.
With Cc1ccc(-c2ccc(/C=N/N3C(=O)C4C5C=CC(C6CC56)C4C3=O)o2)c([N+](=O)[O-])c1 (stereo not drawn) the activity change (PNC), negative = inhibition was inactive: 6.05%.
With O=C(CSc1ccc2ccccc2n1)c1ccc2c(c1)OCO2 the activity change (PNC), negative = inhibition was inconclusive: -39.7%.
For CCOC(=O)Nc1ccc(Oc2ccccc2)cc1, the activity change (PNC), negative = inhibition was inconclusive: -60.4%.
In the case of CCCC(=O)Nc1nc2ccc(S(=O)(=O)N3CCCCC3)cc2s1, the activity change (PNC), negative = inhibition is reported as inconclusive: -72.3%.
In the case of Cc1cc(C)n(C(=O)c2ccc(NC(=O)CC(C)C)cc2)n1, the activity change (PNC), negative = inhibition is reported as inconclusive: -77.6%.
For NC(=O)CSc1nnnn1-c1ccc2c(c1)OCCO2, the activity change (PNC), negative = inhibition was inactive: 3.76%.
With CCCNC(=O)NC(C)C12CC3CC(CC(C3)C1)C2 (stereo not drawn) the activity change (PNC), negative = inhibition was inconclusive: -44.1%.
In the case of O=C(c1cccc(Cl)c1)N1CCN(C2CCCCCC2)CC1, the activity change (PNC), negative = inhibition is reported as inconclusive: -40.3%.
For COc1ccc2cc(C(=O)Nc3ccc(O)cc3)sc(=O)c2c1OC, the activity change (PNC), negative = inhibition was inactive: 30.6%.
In the case of CCCc1nnc(NC(=O)Cn2c(=O)sc3ccccc32)s1, the activity change (PNC), negative = inhibition is reported as inconclusive: -59.4%.
In the case of Cn1c(=O)c2c(ncn2CC(=O)N2CCCc3ccccc32)n(C)c1=O, the activity change (PNC), negative = inhibition is reported as inconclusive: -36.4%.
In the case of Cc1cc(-c2ccccc2)n(-c2ccc(C(=O)N3CCN(c4ncccn4)CC3)cc2)n1, the activity change (PNC), negative = inhibition is reported as inactive: 11.7%.
For CN(C)S(=O)(=O)c1ccc(S(=O)(=O)N(Cc2ccco2)Cc2ccccc2Cl)cc1, the activity change (PNC), negative = inhibition was inconclusive: -54.4%.
For O=C(CSc1nc2ccccc2s1)NC1CCCc2ccccc21 (stereo not drawn), the activity change (PNC), negative = inhibition was inconclusive: -64.4%.
In the case of Oc1c(I)cc(I)c2cccnc12, the activity change (PNC), negative = inhibition is reported as inconclusive: -56.1%.
In the case of O=S(=O)(NCC1CCCO1)c1ccc(S(=O)(=O)N2CCc3ccccc3C2)cc1 (stereo not drawn), the activity change (PNC), negative = inhibition is reported as active: -107%.
In the case of Cc1nonc1C(=O)N/N=C/c1cccc(O)c1, the activity change (PNC), negative = inhibition is reported as inactive: -10.1%.
In the case of COc1ccc(-c2cnn(C3CCS(=O)(=O)C3)c2N)cc1 (stereo not drawn), the activity change (PNC), negative = inhibition is reported as inconclusive: -50.4%.
For O=C(CCN1CCc2ccccc2C(c2ccccc2)C1)c1ccc2c(c1)OCCO2 (stereo not drawn), the activity change (PNC), negative = inhibition was inactive: 62.5%.
For O=C(NCCc1ccccc1)C1CCCN(S(=O)(=O)c2cccnc2)C1 (stereo not drawn), the activity change (PNC), negative = inhibition was inconclusive: -63.9%.
For C=C1CSc2nc(=O)c3c(C)c(C)sc3n21, the activity change (PNC), negative = inhibition was inconclusive: -53.3%.
In the case of Cc1cccc(CN2CCN(CC(=O)O)C2=O)c1, the activity change (PNC), negative = inhibition is reported as inactive: -0.057%.
With CCOc1ccccc1C1CC(c2ccc(Br)cc2)Nc2nc(N)nn21 (stereo not drawn) the activity change (PNC), negative = inhibition was active: -114%.
For COC(=O)c1c(NC(=O)CN2CCN(S(=O)(=O)c3ccccc3[N+](=O)[O-])CC2)sc2c1CCC(C)C2 (stereo not drawn), the activity change (PNC), negative = inhibition was inconclusive: -37%.
For COc1ccccc1N1CCN(C2=CC(=O)CCC2)CC1, the activity change (PNC), negative = inhibition was inconclusive: -32.1%.
With O=C1CC(=O)N(c2ccccc2)N1c1ccccc1 the activity change (PNC), negative = inhibition was inconclusive: -36.4%.
In the case of CCCCCc1ccc(S(=O)(=O)NCCc2ccncc2)cc1, the activity change (PNC), negative = inhibition is reported as inactive: 5.84%.
In the case of CC(C)NC(=O)COC(=O)c1cc(F)c(F)cc1Cl, the activity change (PNC), negative = inhibition is reported as inactive: -6.95%.
With Cn1cc(/C=N/n2cnc3scc(-c4ccccc4)c3c2=O)c2ccccc21 the activity change (PNC), negative = inhibition was active: -113%.
With O=C(c1cc(-c2cccs2)on1)N1CCCCC1 the activity change (PNC), negative = inhibition was inconclusive: -39.7%.
In the case of CCCCc1n[nH]c2c1C(=O)CC(C)(C)C2, the activity change (PNC), negative = inhibition is reported as inconclusive: -45.7%.
With O=S(CC(O)COCc1ccc(Cl)cc1)c1ccccn1 (stereo not drawn) the activity change (PNC), negative = inhibition was inconclusive: -49.8%.
In the case of COc1ccccc1OCc1ccc(C(=O)N2CCN(C(=O)c3ccco3)CC2)cc1, the activity change (PNC), negative = inhibition is reported as inconclusive: -30.4%.
With Cc1cccc(NC(=O)CN2C(=O)N/C(=C/c3ccc(C)s3)C2=O)c1 the activity change (PNC), negative = inhibition was inconclusive: -32.2%.
For CCOC(=O)c1ccc2c(c1)sc(=NC(=O)c1ccco1)n2CCOC, the activity change (PNC), negative = inhibition was inconclusive: -73.1%.
In the case of CCOc1ccc(NC(C)c2cc(Cl)ccc2O)cc1 (stereo not drawn), the activity change (PNC), negative = inhibition is reported as inconclusive: -56.3%.
For CCOC(=O)CN(C(=O)CSc1nnc(CNc2ccc(F)cc2)n1C)c1ccccc1, the activity change (PNC), negative = inhibition was inconclusive: -40.7%.
With CCn1c(Cn2nnc(-c3ccccc3)n2)nnc1SCC(=O)Nc1ccccc1 the activity change (PNC), negative = inhibition was inconclusive: -65.7%.
With O=C(/C=C/c1ccco1)NC(=S)Nc1cc(C(F)(F)F)ccc1N1CCOCC1 the activity change (PNC), negative = inhibition was inconclusive: -30.1%.
